The values below come from paper PMC13249166.

Protein sequences, listed by entry. Tags and fused reporters are not part of them.
UniProt Q02768: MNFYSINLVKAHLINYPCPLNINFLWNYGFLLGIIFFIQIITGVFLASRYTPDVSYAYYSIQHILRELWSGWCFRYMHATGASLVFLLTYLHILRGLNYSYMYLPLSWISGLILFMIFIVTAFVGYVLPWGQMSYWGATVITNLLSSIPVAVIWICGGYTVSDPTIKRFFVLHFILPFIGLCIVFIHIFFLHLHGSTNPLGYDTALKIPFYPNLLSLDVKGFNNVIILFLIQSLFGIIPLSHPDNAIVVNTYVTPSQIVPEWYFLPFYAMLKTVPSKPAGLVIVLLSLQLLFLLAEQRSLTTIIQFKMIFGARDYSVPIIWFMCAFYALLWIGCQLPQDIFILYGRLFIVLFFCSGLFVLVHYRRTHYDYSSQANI

No constants are given. Whether binding was seen depends on the method and setting. Binding seen in cells or lysates may run through a third protein. These calls come from enrichment with a bait or labelling near it, and not all partners need be listed. No binding means not detected with the bait.

To fix the notation:
B1: PF3D7_1119600 (a putative PfFTSH zinc metalloprotease) (protein, UniProt Q8IIH1 1-1052)
chain: MYRADIIRKKSTCLLLPSEKNAFQKKKWLLKKSLDNLLDYNNTQKECLHSLSYLKDRINNNNNNNMKNGYKELAVCSSSIKYNSNVDYNIFFDSLNFICEHVQNIWSNKNKHVQINENISNMFVKFLKKYNHFKNGNYKIKNRLYKKDSFIKPSNYLQSFLLNGKCDEGEKIIKKILKDNKSLKSIKKKIMRKNEDFIWSRERNMTNLSGHNQSEHTLGESIINNNNNNNIINNVIKKHMSFTNSRYIGFLNNNVSKYKLNFFQFLKNMYLSKAPKGFERFENKSPNSNNFKPEEEKPRKYDNYFFYIFFILLLFFLLFVDSNGLYNEITQNDFFYKYLSKGYVEKIKLINKDYVKAYLNSHGIKKYHMKYVSFRVGNSDSFEKKVEAVQREMNIKRDELIEVQYVNEANILNEVKGYIPSILFFLLLIFLFQKITLKNVTNSGMDKLFKFSKISPINKNSLKTDVKFSSVAGMKQAKEEIMEFVDFLKNPTKYEILGAKIPKGALLCGAPGTGKTLLAKAVAGEANVPFFNISGSDFIEVFVGIGPSRVRELFAQARKHAPSIIFIDEIDAVGRKRSKGGFSGGGNDERENTLNQMLVEMDGFHTSNDKVVVLAGTNRVDILDPAITRPGRFDRIVNISKPDINERSEIFQVHLKNLKLHESLDIKNISYILASLTPGFVGADIANVVNEGAIQCARRSNLLGVQIKDFELAIERVIGGLPKSSSLISPLEKKIISYHETGHALIGWFLEFADPVLKVSIIPRNNGALGYSQHLSEEIMLFSRDAILDKIAVILGGRAAEELFIGKITTGAIDDLNKVTQLAYSYVSQYGMNQEIGLVSFQPNSNSEYNLYRPHSECLAHLIDNEVRSLIETQYKRVKSILMKNEKHVHNLANLLYEKETISYHDIVKCVGERPYPVKSAYEKFVKANPYKAISSEPLLEDKKESDNMKGDTSNIGNVNTNDFEKGHIKENTKECTKENTKENTKDNTKENTKENTKEYTKDNTKNQYNILGNSSKDDTKQTSSKLNEEKCKEKLGDSKKKDNKISNVKLR
B2: flap endonuclease I (PF3D7_0408500) (enzyme, UniProt Q7K734 1-672)
chain: MGIKGLTKFIADAAPNAIKEIKIESLMGRIIAIDASMSLYQFIIAIRDSEQYGNLTNESGETTSHISGLMSRSIRLMENGLKPIYVFDGAPPELKGSELEKRGEKRQKAEELLKKAKEEGNLEEIKKQSGRTVRVTRKQNEEAKKLLTLMGIPIIEAPCEAESQCAFLTKYNLAHATATEDADALVFGTKILIRNLNANATSNQNKNKNNSKRGYILTEINLEQVLKGLNLTMDEFIDFCILCGCDYCDTIKGIGSKTAYNLIKEYNCIEKIIENIDQNKYQVPSNFRFQEARKSFINPNVLPKEDIKIDWNEPQIEELKHFLIKDYNFNELRVTNYINRLLKARKVTTQRRLDNFFTACTKKSTKLIVEETKKEQTLPARKGKKRPTAGDKNKQKAVKRKIEQANANGHHKMKEENKSVDNEKNEDGIKSVDNEKNEDGIKSVDDEKNLDDEKNLDDEKNKDDEKNKDDEKNKDDEKNKDDEKNKDDEKKSLDNFSSNLFDSDKESESGNIIKNEKQNMDDEKINDNLPSLFGDHSRIRHTENKDNISDINNNNNNNNSSSNNNNISNNHFNSVSSNSTFNSSTKLKSEDTLKSNSPLKEDSPNSYNNIKNNNHTININSQINNHKEPISNNNLNNINNSTEIKKKNTLFLLPFCPKDVTNVKKKKYTQRC
B3: cytochrome c oxidase I (protein, UniProt Q02766 1-476)
chain: MVLNRYSLITNCNHKTLGLYYLWFSFLFGSYGFLLSVILRTELYSSSLRIIAQENVNLYNMIFTIHGIIMIFFNIMPGLFGGFGNYFLPILCGSPELAYPRINSISLLLQPIAFVLVILSTAAEFGGGTGWTLYPPLSTSLMSLSPVAVDVIIFGLLVSGVASIMSSLNFITTVMHLRAKGLTLGILSVSTWSLIITSGMLLLTLPVLTGGVLMLLSDLHFNTLFFDPTFAGDPILYQHLFWFFGHPEVYILILPAFGVISHVISTNYCRNLFGNQSMILAMGCIAVLGSLVWVHHMYTTGLEVDTRAYFTSTTILISIPTGTKVFNWICTYMSSNFGMIHSSSLLSLLFICTFTFGGTTGVILGNAAIDVALHDTYYVIAHFHFVLSIGAIIGLFTTVSAFQDNFFGKNLRENSIVILWSMLFFVGVILTFLPMHFLGFNVMPRRIPDYPDALNGWNMICSIGSTMTLFGLLIFK

This test concerns the target T1, PfATAD3-3xHA (PF3D7_0707400, ATPase family AAA+ domain containing protein 3 of P. falciparum) (P. falciparum) (UniProt C0H4M1).
T1 sequence: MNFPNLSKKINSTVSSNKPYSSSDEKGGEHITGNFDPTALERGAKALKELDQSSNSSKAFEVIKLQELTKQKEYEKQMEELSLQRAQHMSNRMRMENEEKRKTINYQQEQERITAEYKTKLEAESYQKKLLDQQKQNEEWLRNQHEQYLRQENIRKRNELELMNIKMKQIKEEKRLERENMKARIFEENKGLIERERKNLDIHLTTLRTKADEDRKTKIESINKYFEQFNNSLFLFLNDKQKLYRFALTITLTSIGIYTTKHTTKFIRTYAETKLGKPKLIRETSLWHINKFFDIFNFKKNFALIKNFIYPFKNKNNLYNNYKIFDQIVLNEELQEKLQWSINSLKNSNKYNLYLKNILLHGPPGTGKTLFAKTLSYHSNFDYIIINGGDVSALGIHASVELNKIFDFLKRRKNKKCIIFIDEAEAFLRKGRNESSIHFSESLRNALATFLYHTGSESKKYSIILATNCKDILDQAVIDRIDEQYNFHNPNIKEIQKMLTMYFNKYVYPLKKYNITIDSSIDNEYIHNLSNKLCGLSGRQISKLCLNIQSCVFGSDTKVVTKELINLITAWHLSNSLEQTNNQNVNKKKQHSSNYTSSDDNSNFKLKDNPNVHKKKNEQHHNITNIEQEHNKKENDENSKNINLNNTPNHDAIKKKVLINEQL
Kind of test: affinity purification with mass spectrometry; anti-HA magnetic beads; parasite pellets of PfATAD3-HA/TOM22-mNG parasites solubilised with 2% digitonin overnight at 4 C; beads incubated with supernatant overnight at 4 C; washed three times with Native Wash buffer (25 mM HEPES, 10 mM MgCl2, 50 mM KCl, 100 mM NaCl, 0.2% digitonin); untagged NF54 wildtype parasites as negative control; triplicate, LFQ.
Turning to “PfTIM50 (Translocase of the Inner Mitochondrial Membrane 50)”, the binding entry is given as “binds”.
In the case of “shewanella-like protein phosphatase (enzyme)”, the binding result was “binds”.
For the molecule “PfTIM23 (Translocase of the Inner Mitochondrial Membrane 23)”, the binding result is on record as “binds”.
In the case of syntaxin it was “binds”.
As for “cytochrome b (from UniProt Q02768 1-376)”, the binding result was “no binding”.
Regarding cytochrome c oxidase III, the binding result is reported as “no binding”.
Turning to B1, the binding result was “binds”.
In the case of B2, the binding entry is recorded as “binds”.
The entry for B3 is “no binding”.
